Experimental findings from PMC11276024 are described below.

Amino acid sequences for entries named in this document (tags omitted).
UniProt P39081: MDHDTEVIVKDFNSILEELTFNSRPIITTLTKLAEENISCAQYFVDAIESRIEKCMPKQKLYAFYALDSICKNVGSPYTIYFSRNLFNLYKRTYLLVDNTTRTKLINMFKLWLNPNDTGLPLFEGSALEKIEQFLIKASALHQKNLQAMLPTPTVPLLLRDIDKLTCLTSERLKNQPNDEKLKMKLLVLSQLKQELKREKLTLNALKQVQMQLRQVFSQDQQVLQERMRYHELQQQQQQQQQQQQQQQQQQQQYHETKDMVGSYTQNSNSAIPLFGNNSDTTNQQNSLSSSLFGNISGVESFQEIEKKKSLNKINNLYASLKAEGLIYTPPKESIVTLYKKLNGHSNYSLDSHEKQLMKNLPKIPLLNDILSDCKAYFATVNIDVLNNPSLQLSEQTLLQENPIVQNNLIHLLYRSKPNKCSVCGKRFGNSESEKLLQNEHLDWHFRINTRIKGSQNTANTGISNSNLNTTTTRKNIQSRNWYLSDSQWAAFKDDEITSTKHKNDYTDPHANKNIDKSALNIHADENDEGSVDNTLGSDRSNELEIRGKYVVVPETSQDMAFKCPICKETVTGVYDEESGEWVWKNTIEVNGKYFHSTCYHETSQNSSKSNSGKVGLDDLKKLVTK

These are yes or no findings as the source states them, for the method shown. In cells and extracts the contact can be indirect. These calls come from enrichment with a bait or labelling near it, and not all partners need be listed.

T1: TFIIB sua7-1 mutant (TFIIB^sua7-1, E62K) (S. cerevisiae) (UniProt P29055)
T1 sequence: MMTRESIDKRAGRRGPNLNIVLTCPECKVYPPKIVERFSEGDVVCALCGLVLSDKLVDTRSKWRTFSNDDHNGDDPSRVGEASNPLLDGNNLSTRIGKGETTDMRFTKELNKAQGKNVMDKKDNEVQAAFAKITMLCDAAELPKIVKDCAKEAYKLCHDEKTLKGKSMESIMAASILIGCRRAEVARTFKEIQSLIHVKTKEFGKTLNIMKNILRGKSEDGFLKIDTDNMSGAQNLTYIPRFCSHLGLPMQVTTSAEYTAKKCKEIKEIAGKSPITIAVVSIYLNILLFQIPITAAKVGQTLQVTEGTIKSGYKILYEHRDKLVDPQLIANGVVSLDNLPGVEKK

B1: Clp1 (protein, UniProt Q08685 1-445)
chain: MASLPGIDEHTTSEELITGDNEWHKLVIPKGSDWQIDLKAEGKLIVKVNSGIVEIFGTELAVDDEYTFQNWKFPIYAVEETELLWKCPDLTTNTITVKPNHTMKYIYNLHFMLEKIRMSNFEGPRVVIVGGSQTGKTSLSRTLCSYALKFNAYQPLYINLDPQQPIFTVPGCISATPISDILDAQLPTWGQSLTSGATLLHNKQPMVKNFGLERINENKDLYLECISQLGQVVGQRLHLDPQVRRSGCIVDTPSISQLDENLAELHHIIEKLNVNIMLVLCSETDPLWEKVKKTFGPELGNNNIFFIPKLDGVSAVDDVYKRSLQRTSIREYFYGSLDTALSPYAIGVDYEDLTIWKPSNVFDNEVGRVELFPVTITPSNLQHAIIAITFAERRADQATVIKSPILGFALITEVNEKRRKLRVLLPVPGRLPSKAMILTSYRYLE
B2: Rna15 (protein, UniProt P25299 1-296)
chain: MNRQSGVNAGVQNNPPSRVVYLGSIPYDQTEEQILDLCSNVGPVINLKMMFDPQTGRSKGYAFIEFRDLESSASAVRNLNGYQLGSRFLKCGYSSNSDISGVSQQQQQQYNNINGNNNNNGNNNNNSNGPDFQNSGNANFLSQKFPELPSGIDVNINMTTPAMMISSELAKKPKEVQLKFLQKFQEWTRAHPEDAVSLLELCPQLSFVTAELLLTNGICKVDDLIPLASRPQEEASATNNNSVNEVVDPAVLNKQKELLKQVLQLNDSQISILPDDERMAIWDLKQKALRGEFGAF
B3: Rna14 (protein, UniProt P25298 1-677)
chain: MSSSTTPDLLYPSADKVAEPSDNIHGDELRLRERIKDNPTNILSYFQLIQYLETQESYAKVREVYEQFHNTFPFYSPAWTLQLKGELARDEFETVEKILAQCLSGKLENNDLSLWSTYLDYIRRKNNLITGGQEARAVIVKAFQLVMQKCAIFEPKSSSFWNEYLNFLEQWKPFNKWEEQQRIDMLREFYKKMLCVPFDNLEKMWNRYTQWEQEINSLTARKFIGELSAEYMKARSLYQEWLNVTNGLKRASPINLRTANKKNIPQPGTSDSNIQQLQIWLNWIKWERENKLMLSEDMLSQRISYVYKQGIQYMIFSAEMWYDYSMYISENSDRQNILYTALLANPDSPSLTFKLSECYELDNDSESVSNCFDKCTQTLLSQYKKIASDVNSGEDNNTEYEQELLYKQREKLTFVFCVYMNTMKRISGLSAARTVFGKCRKLKRILTHDVYVENAYLEFQNQNDYKTAFKVLELGLKYFQNDGVYINKYLDFLIFLNKDSQIKTLFETSVEKVQDLTQLKEIYKKMISYESKFGNLNNVYSLEKRFFERFPQENLIEVFTSRYQIQNSNLIKKLELTYMYNEEEDSYFSSGNGDGHHGSYNMSSSDRKRLMEETGNNGNFSNKKFKRDSELPTEVLDLLSVIPKRQYFNTNLLDAQKLVNFLNDQVEIPTVESTKSG

The test has as its target T1, TFIIB sua7-1 mutant (TFIIB^sua7-1, E62K) (S. cerevisiae). In words: affinity purification with mass spectrometry; TFIIB affinity purified from chromatin (and soluble) fractions of S. cerevisiae cells; purified fractions subjected to mass spectrometry; TFIIB-normalized spectral abundance factor (BNSAF); four replicates.
For the molecule Pcf11 (from UniProt P39081 1-626), the binding result was “binds”.
In the case of B1, the binding entry is recorded as “binds”.
The entry for B2 is “binds”; for B3 it is “binds”.
